{"source": "PubChem BioAssay AID1347423", "about": "(Functional Genomics Laboratory (NCATS/FGL), 2020)", "note": "In all, about 52,000 sequences went through this assay and about 210 (0.4%) were called active.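 How the source made its calls: active means gene whose silencing raises cell survival under the drug, median off-target-corrected z-score across its silencing RNAs 2 or more; inactive means the rest.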 Some of the results follow."}
{"assay": "Resistance to Poly (ADP-Ribose) Polymerase inhibitor: Gene Identification via Genome-wide siRNA Screen", "conditions": "mouse BRCA2 R2336H ES cells, olaparib, CellTiter-Glo viability; active compounds read high", "outline": "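Genome-wide siRNA screen (3 siRNAs/gene, 20 nM) in mouse ES cells carrying hypomorphic BRCA2 R2336H; olaparib 500 nM added 48 h post-transfection, CellTiter-Glo viability 72 h later. Normalized to plate-median negative control; MAD z-scores, gene median, seed-adjusted.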"}
{"sequence": "UUCUGUGCAUCCUGUCCUATT against Kcnk15", "z-score": "active: -0.484"}
{"sequence": "GGCUCCUGGGCAAUAUGAUTT against Hbb-b1", "z-score": "inactive: -0.114"}
{"sequence": "GGUGGUCAUCAACACACAGTT against Drd1ip", "z-score": "inactive: 0.467"}
{"sequence": "GCAGUAGGUUGCACACAUATT against Art1", "z-score": "inactive: -0.715"}
{"sequence": "GGACUAGUUGUGACUUAAGTT against Aldh1a1", "z-score": "inactive: 0.188"}
{"sequence": "GCAUUCUCAAGAGAUGCCCTT against Alk", "z-score": "inactive: -0.552"}
{"sequence": "GGCAAUCAUUGGACUAUACTT against Nckap1", "z-score": "inactive: -0.467"}
{"sequence": "GGAGGCUAUCAGAAGCAUCTT against C130021I20", "z-score": "inactive: -0.324"}
{"sequence": "GCCUGAUACGUUUUUUAAGTT against Ccr1l1", "z-score": "inactive: 0.331"}
{"sequence": "GCUAUGAUGUAGCCAGGACTT against 1110007F05Rik", "z-score": "inactive: -2.43"}
{"sequence": "GGAUGUCUACUUUGUAUCUTT against Tph1", "z-score": "inactive: -1.19"}
{"sequence": "GGAUUCAUUUCAUACCUUGTT against 1700093E07Rik", "z-score": "inactive: -0.368"}
{"sequence": "GGACCUUUUGUGAACUUACTT against E2f3", "z-score": "inactive: 2.23"}
{"sequence": "CCGUUCUCCAGGACUCUUUTT against 2310036O22Rik", "z-score": "inactive: 0.246"}
{"sequence": "CCACUUGAGAGGUGUUUUUTT against 1110055N21Rik", "z-score": "inactive: 1.28"}
{"sequence": "GGACAAUCACUCCAGGAGUTT against Gzmg", "z-score": "inactive: -0.123"}
{"sequence": "GAUGUCUUCUAUGGAGGCATT against Olfr60", "z-score": "inactive: -1.31"}
{"sequence": "GGGUAAAGACCUCAAUGAATT against 3200001I04Rik", "z-score": "inactive: 0.278"}
{"sequence": "GCACUUUGACCUGAAUCUATT against Bing4", "z-score": "inactive: -1.41"}
{"sequence": "GGUUACCUAUACAUUUCAGTT against Erbb2", "z-score": "inactive: -0.108"}
{"sequence": "GGGAGGUAGUCGUAGAAAUTT against Trp53i11", "z-score": "inactive: 0.685"}
{"sequence": "GGAGAAAUGGUACAAGGUCTT against Nxf2", "z-score": "inactive: 0.783"}
{"sequence": "GGCCUAAUAUUUUCAUAGATT against Prdx6-rs1", "z-score": "inactive: -0.514"}
{"sequence": "GGAGAAGUUGGCAAAGAUGTT against Col9a3", "z-score": "inactive: 2.69"}
{"sequence": "GGAGAGCACGAUAACAAGATT against Fabp5", "z-score": "inactive: -0.938"}
{"sequence": "GGUCCUUGGUAAUCAAAUATT against Zc3hdc7", "z-score": "inactive: -1.19"}
{"sequence": "GGCUUGUUUAUGUGUAAUUTT against Bccip", "z-score": "inactive: -2.71"}
{"sequence": "GCAAGAGUUACUUCUUAUUTT against Hdac9", "z-score": "inactive: -0.212"}
{"sequence": "GCUGAGUGAUCGAUCUUAATT against 0610012C01Rik", "z-score": "inactive: -0.292"}
{"sequence": "GGUGUUGGCUCACAACCAATT against 8430419L09Rik", "z-score": "inactive: -0.187"}
{"sequence": "GGAGAUCCAUAUCAAUGGGTT against BC023151", "z-score": "inactive: -0.551"}
{"sequence": "GGCUUUAAAAGCCUAUAUGTT against 4933400A11Rik", "z-score": "inactive: 0.416"}
{"sequence": "GGAGGAAGAAGAGAAAGCCTT against Ppm1f", "z-score": "inactive: -0.1"}
{"sequence": "GGAGCAAUUAAAGGUGUCATT against Fpr-rs3", "z-score": "inactive: -0.893"}
{"sequence": "GGGUAACAUUAGGAGAGUUTT against B230342M21Rik", "z-score": "inactive: -2.04"}
{"sequence": "GCAACUGUUACUUCUCAACTT against 4933421E11Rik", "z-score": "inactive: 0.651"}
{"sequence": "GGGACUAUAAGGAACCAGGTT against Fmo3", "z-score": "inactive: -1.19"}
{"sequence": "GCUUAACACAAAAUAAGGCTT against Tph2", "z-score": "inactive: -0.0384"}
{"sequence": "GGCUUGAGACAUUUUUCAATT against A330080J22Rik", "z-score": "inactive: -0.00542"}
{"sequence": "GGUCAUAGUUUCUGAAUGATT against Cdx4", "z-score": "inactive: -1.2"}
{"sequence": "CCUAACUAUUGUAGUAGCATT against Thrsp", "z-score": "inactive: 0.821"}
{"sequence": "GGAAGCUACAUGCUGUUCCTT against Anln", "z-score": "inactive: -0.833"}
{"sequence": "GGAGAAAAACAAAGAACACTT against Aif1", "z-score": "inactive: -0.0248"}
{"sequence": "GGUGCACCUGAUGUACAAGTT against Trim25", "z-score": "inactive: 0.549"}
{"sequence": "GGAGCGCGUGAAACUGUCUTT against Fbxw4", "z-score": "inactive: -2"}
{"sequence": "AGGUCACCAAACGUGAUGATT against Rc3h1", "z-score": "inactive: 0.725"}
{"sequence": "GGUUGAUGCCAUGAAGUCCTT against Acyp2", "z-score": "inactive: 1.37"}
{"sequence": "CCAGGGUUUAGCCUUUUGATT against E030010A14", "z-score": "inactive: -0.0457"}
{"sequence": "CGAUUUUUUUGCCCUCCUCTT against Rbpsuh", "z-score": "inactive: -0.0113"}
{"sequence": "GGCAGAGCCAGGAUGUCUUTT against Msmb", "z-score": "inactive: -0.504"}
{"sequence": "GGAGAAUUAACUGUUCCUCTT against Kcnmb2", "z-score": "inactive: -1.2"}
{"sequence": "GGACAGUUUUAAAGAAGAATT against BC057893", "z-score": "inactive: -0.837"}
{"sequence": "GGUUAUUCUGGUACAGGUUTT against Fndc3", "z-score": "inactive: -0.227"}
{"sequence": "CGUUUUUAUGAGGAGGCCUTT against C330016O10Rik", "z-score": "inactive: -1.57"}
{"sequence": "GGUCUCAGACACCUGACUCTT against D630048P19Rik", "z-score": "inactive: 1.12"}
{"sequence": "GGCCAAUAAAGGAAAGAAATT against 4930578I06Rik", "z-score": "inactive: 0.00313"}
{"sequence": "GGAAGCUUUCCAAUGGCUGTT against Cyp2c29", "z-score": "inactive: -0.543"}
{"sequence": "GGCUGAAAAAUGCUUGAUUTT against Dhdds", "z-score": "inactive: 1.15"}
{"sequence": "GGUAAUCGUGUAUUCAUAUTT against 2410012M04Rik", "z-score": "inactive: -1.89"}
{"sequence": "CCAGUUUCAGAUCAGAUUATT against 6430604K15Rik", "z-score": "inactive: 0.508"}
{"sequence": "GCAUCUGCUAUGGGAAGACTT against 1810054D07Rik", "z-score": "inactive: 0.63"}
{"sequence": "GGACAGAGAACAGUUGAUGTT against Mrps9", "z-score": "inactive: -0.833"}
{"sequence": "CCUGUAGGUGGAAUAAACATT against 9430062J17Rik", "z-score": "inactive: -0.0774"}
{"sequence": "GCUAGAGUAGCUUUGGGCATT against Glra3", "z-score": "inactive: -0.402"}
{"sequence": "GCUGAUAAAGUUUUUGUCUTT against Tas2r104", "z-score": "inactive: 0.3"}
{"sequence": "GGAACUGGAGCAACUCAUUTT against Rutbc2", "z-score": "inactive: -1.79"}
{"sequence": "CCAUUUAACCGUAAGACGUTT against Krtap8-2", "z-score": "inactive: 0.535"}
{"sequence": "GGUGUUGUAUUCAGGCUGGTT against Slc41a1", "z-score": "inactive: -0.387"}
{"sequence": "GGACCAGUUACAGAUGUGGTT against Dyt1", "z-score": "inactive: 0.056"}
{"sequence": "GGGAACACAGCUAUUUCCUTT against Olfr808", "z-score": "inactive: -0.275"}
{"sequence": "GGCUAUGAGUUUUUCUAUUTT against Sart3", "z-score": "inactive: 0.199"}
{"sequence": "GGAUCCAAGGCAAAGAUGUTT against Fto", "z-score": "inactive: 0.396"}
{"sequence": "CCCACCCUAAAUUUAGGAUTT against D630048P19Rik", "z-score": "inactive: 0.161"}
{"sequence": "GCUAGUGAUGCUCUUACAGTT against D430038H04Rik", "z-score": "inactive: 1.43"}
{"sequence": "CCGGUACAAUUCCUGUGAUTT against Attp", "z-score": "inactive: -2.15"}
{"sequence": "CCUUGAUGGAUGUUACCAATT against Asah1", "z-score": "inactive: -0.196"}
{"sequence": "GCAUUAUGGAAAGUUGGAGTT against Gabra4", "z-score": "inactive: 2.35"}
{"sequence": "GGACUCAUGUUCAACACAGTT against 1500031M22Rik", "z-score": "inactive: 0.88"}
{"sequence": "CCAUGGAAUUCAAUUCCUUTT against F830104D24Rik", "z-score": "inactive: 1.03"}
{"sequence": "GGUAGCUGUCAACAAGGCATT against Akt2", "z-score": "inactive: -0.0746"}
{"sequence": "GGACUUCUAUGAUUGGCUGTT against Por", "z-score": "inactive: 0.217"}
{"sequence": "GGAACCAAUCCACCUGAUUTT against Tas2r136", "z-score": "inactive: 0.424"}
{"sequence": "GGCUAACCCUUUCAAGGAGTT against Cib1", "z-score": "inactive: -0.244"}
{"sequence": "GGAUUCAUAGACUUCAUAGTT against Impdh1", "z-score": "inactive: 1.98"}
{"sequence": "GGAGACAUAUGAAGAGAUATT against Lsm3", "z-score": "inactive: -1.07"}
{"sequence": "CGAGGGAUAAGAGUCUACGTT against D4Bwg1540e", "z-score": "inactive: -0.0629"}
{"sequence": "GGCUGACCUAAAGAAGGAGTT against Cnot3", "z-score": "inactive: 0.0216"}
{"sequence": "CCUGAAGCCUCAAUACACATT against Ugt1a1", "z-score": "inactive: 0.505"}
{"sequence": "CGAAAGAAGUCAAUACAGATT against BC059177", "z-score": "inactive: 0.797"}
{"sequence": "GGAGUUCACCAGCUACCAATT against Myoz3", "z-score": "inactive: -0.000122"}
{"sequence": "CCAGGUGAUGUCUAGAUAATT against Edg8", "z-score": "inactive: 0.116"}
{"sequence": "GGAGUUUGGGAACACUUUGTT against Apoc1", "z-score": "inactive: -0.11"}
{"sequence": "CCUUGCUAGCCGCCACUUUTT against 0610038D11Rik", "z-score": "inactive: -2.03"}
{"sequence": "GGGAAAAUAUCUCAUAUCATT against LOC239447", "z-score": "inactive: -0.57"}
{"sequence": "CGGAGAAGUCACCAAUACUTT against Tll1", "z-score": "inactive: 0.566"}
{"sequence": "GGUUCUGAACACAUUUCCATT against Cyp2d13", "z-score": "inactive: 0.236"}
{"sequence": "GGCCUGUUCUGAAGAACUATT against Gp2", "z-score": "inactive: 0.594"}
{"sequence": "GCAUCCUUCUGAGUUGAUGTT against Tollip", "z-score": "inactive: -0.272"}
{"sequence": "GGGAACAAACCUUGAUUCUTT against Adam24", "z-score": "inactive: -1.2"}
{"sequence": "GGCUUCCACGUAAUUGUCCTT against E130112H22Rik", "z-score": "inactive: 0.38"}
{"sequence": "GGAGAGAGCUCAGGAAUGATT against Rpp25", "z-score": "inactive: -1.81"}
{"sequence": "GGUGAUCAAACUGAUGGACTT against BC021523", "z-score": "inactive: 0.033"}
{"sequence": "CCUCUAUAAAUAGCAUAGUTT against Olfr860", "z-score": "inactive: -0.792"}
